Data reported in publication PMC12198979.
No constants are given. Whether binding was seen depends on the method and setting. Binding seen in cells or lysates may run through a third protein. Binding can be weak; no strength is given. Sequences can lack the tags named with a protein.

Target: T1, DEK-His-GFP (LAP-tag DEK fusion) (human) (UniProt P35659)
T1 sequence: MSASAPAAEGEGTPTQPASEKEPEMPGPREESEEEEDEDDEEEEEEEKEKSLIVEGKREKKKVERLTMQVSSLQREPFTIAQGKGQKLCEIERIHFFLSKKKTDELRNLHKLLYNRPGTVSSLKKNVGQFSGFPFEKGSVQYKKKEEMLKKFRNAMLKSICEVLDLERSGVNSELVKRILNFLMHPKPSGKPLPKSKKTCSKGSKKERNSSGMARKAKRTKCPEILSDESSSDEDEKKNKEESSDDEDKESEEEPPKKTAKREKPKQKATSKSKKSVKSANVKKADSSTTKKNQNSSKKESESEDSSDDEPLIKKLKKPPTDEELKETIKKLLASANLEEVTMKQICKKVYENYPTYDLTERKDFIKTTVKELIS
Test: co-IP; GFP-trap (LAP-tag immunoprecipitation): nuclear extract of tetracycline-induced HEK293 cells on GFP-trap beads, 1 h at 4°C; wash buffer 10 mM Tris-HCl pH 7.5, 150 mM NaCl, 0.5 mM EDTA; eluted with 0.2 M glycine pH 2.5; immunoblot

- binding: binds
Substance: CK2 (human (endogenous in HEK293)) (enzyme)
